For the assay, the target named is PPP1CC, catalytic subunit of PP1, in HeLa lysate (human (endogenous in HeLa)) (UniProt P36873). In words: co-IP.

Protein sequences, listed by entry. Tags and fused reporters are not part of them.
UniProt P36873: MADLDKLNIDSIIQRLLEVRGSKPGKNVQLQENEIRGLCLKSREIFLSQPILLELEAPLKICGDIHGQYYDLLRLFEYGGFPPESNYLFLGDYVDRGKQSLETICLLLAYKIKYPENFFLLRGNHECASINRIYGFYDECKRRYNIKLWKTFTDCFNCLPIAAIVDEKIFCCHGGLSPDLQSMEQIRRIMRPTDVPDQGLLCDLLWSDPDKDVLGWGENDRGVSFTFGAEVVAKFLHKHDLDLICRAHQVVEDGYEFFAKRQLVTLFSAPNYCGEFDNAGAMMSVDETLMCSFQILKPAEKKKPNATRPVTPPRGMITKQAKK

These are yes or no findings as the source states them, for the method shown. Binding seen in cells or lysates may run through a third protein. Some results given as binding are weak or reduced against the parent protein; the word gives no strength.

B1: PPP1R10 in HeLa lysate (protein, UniProt Q96QC0 1-940)
chain: MGSGPIDPKELLKGLDSFLNRDGEVKSVDGISKIFSLMKEARKMVSRCTYLNILLQTRSPEILVKFIDVGGYKLLNNWLTYSKTTNNIPLLQQILLTLQHLPLTVDHLKQNNTAKLVKQLSKSSEDEELRKLASVLVSDWMAVIRSQSSTQPAEKDKKKRKDEGKSRTTLPERPLTEVKAETRAEEAPEKKREKPKSLRTTAPSHAKFRSTGLELETPSLVPVKKNASTVVVSDKYNLKPIPLKRQSNVAAPGDATPPAEKKYKPLNTTPNATKEIKVKIIPPQPMEGLGFLDALNSAPVPGIKIKKKKKVLSPTAAKPSPFEGKTSTEPSTAKPSSPEPAPPSEAMDADRPGTPVPPVEVPELMDTASLEPGALDAKPVESPGDPNQLTRKGRKRKSVTWPEEGKLREYFYFELDETERVNVNKIKDFGEAAKREILSDRHAFETARRLSHDNMEEKVPWVCPRPLVLPSPLVTPGSNSQERYIQAEREKGILQELFLNKESPHEPDPEPYEPIPPKLIPLDEECSMDETPYVETLEPGGSGGSPDGAGGSKLPPVLANLMGSMGAGKGPQGPGGGGINVQEILTSIMGSPNSHPSEELLKQPDYSDKIKQMLVPHGLLGPGPIANGFPPGGPGGPKGMQHFPPGPGGPMPGPHGGPGGPVGPRLLGPPPPPRGGDPFWDGPGDPMRGGPMRGGPGPGPGPYHRGRGGRGGNEPPPPPPPFRGARGGRSGGGPPNGRGGPGGGMVGGGGHRPHEGPGGGMGNSSGHRPHEGPGGGMGSGHRPHEGPGGSMGGGGGHRPHEGPGGGISGGSGHRPHEGPGGGMGAGGGHRPHEGPGGSMGGSGGHRPHEGPGHGGPHGHRPHDVPGHRGHDHRGPPPHEHRGHDGPGHGGGGHRGHDGGHSHGGDMSNRPVCRHFMMKGNCRYENNCAFYHPGVNGPPLP
B1: the binding result is recorded as “binds”.

B2: PPP1R2 in HeLa lysate (protein, UniProt P41236 1-205)
chain: MAASTASHRPIKGILKNKTSTTSSMVASAEQPRGNVDEELSKKSQKWDEMNILATYHPADKDYGLMKIDEPSTPYHSMMGDDEDACSDTEATEAMAPDILARKLAAAEGLEPKYRIQEQESSGEEDSDLSPEEREKKRQFEMKRKLHYNEGLNIKLARQLISKDLHDDDEDEEMLETADGESMNTEESNQGSTPSDQQQNKLRSS
For the molecule B2, the binding result is listed as “binds”.
